{"source": "PubChem BioAssay AID493014", "about": "(National Center for Advancing Translational Sciences (NCATS), 2011)", "experiment": "qHTS Assay to Find Inhibitors of Chronic Active B-Cell Receptor Signaling", "settings": "ABC-DLBCL IkBa-CBG/CBR reporter, luminescence ratio (green luciferase fused to IkBa over red control in TMD8 lymphoma cells), 4 h", "method_in_brief": "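Compounds up to 46 uM were incubated four hours with TMD8 cells whose green CBG68 luciferase is fused to IkappaBalpha; red CBR luminescence normalised the signal, and concentration-effect curves were fitted to fusion, red and ratio data.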", "key": {"[1]": {"settings": "measured here: CBR red luminescence, cell number"}, "[2]": {"settings": "measured here: IkBa-CBG green luminescence"}}, "note": "This is one part of the list. The main result of the screen is listed elsewhere. These columns were measured beside it and carry no call. Most of these compounds were active or inconclusive in the main read-out, so they are no random draw. Words in brackets tell the shape of the fitted curve; partial curves, single points and poor fits give uncertain potencies.", "data": [{"smiles": "COc1ccc(NC(=O)CSc2nnnn2C2CC2)cc1S(=O)(=O)N1CCOCC1", "values": [{"measurement": "AC50", "setting": "[1]", "result": "14.6 µM [rising, partial curve, poor fit]"}]}, {"smiles": "Cc1ccc(C2=NS(=O)(=O)N(C)C(C(=O)Nc3ccc(F)cc3F)=C2)cc1", "values": [{"measurement": "AC50", "setting": "[1]", "result": "10 µM [falling, partial curve, poor fit]"}]}, {"smiles": "COc1ccc(C)cc1NC(=O)c1nn(C)c(C(=O)Nc2cc(C)ccc2OC)c1[N+](=O)[O-]", "values": [{"measurement": "AC50", "setting": "[1]", "result": "0.501 µM [rising, full curve, poor fit]"}]}, {"smiles": "O=C1CCCc2cc3c(cc21)CC1(C3)Cc2cc3c(cc2C1)C(=O)CCC3", "values": [{"measurement": "AC50", "setting": "[1]", "result": "7.94 µM [falling, partial curve]"}]}, {"smiles": "O=S(=O)(c1ccccc1)c1nc(-c2ccccc2Cl)oc1NCCCN1CCOCC1", "values": [{"measurement": "AC50", "setting": "[1]", "result": "23.1 µM [falling, partial curve, poor fit]"}]}, {"smiles": "CN(C)C(=S)Nc1ccc(Cl)cc1", "values": [{"measurement": "AC50", "setting": "[1]", "result": "17.8 µM [rising, partial curve, poor fit]"}]}, {"smiles": "CCc1ccc(NC(=O)NCc2ccc3c(c2)OCO3)cc1", "values": [{"measurement": "AC50", "setting": "[1]", "result": "8.91 µM [falling, partial curve]"}]}, {"smiles": "CCc1ccc(NC(=O)[C@@H](NC(=O)[C@@H]2Cc3ccccc3CN2)C(C)CC)cc1", "note": "(stereo partly specified)", "values": [{"measurement": "AC50", "setting": "[1]", "result": "0.708 µM [rising, full curve, poor fit]"}]}, {"smiles": "CCCCCC(=O)N(CN1C(=O)CCC1=O)c1ccccc1", "values": [{"measurement": "AC50", "setting": "[1]", "result": "1.46 µM [falling, partial curve]"}]}, {"smiles": "O=C(Nc1ccccc1Cl)N1CCN(c2ncccn2)CC1", "values": [{"measurement": "AC50", "setting": "[1]", "result": "18.4 µM [falling, single point]"}]}, {"smiles": "Cc1nc(CNC(=O)CC2C(=O)NCCN2Cc2cccc(Oc3ccccc3)c2)cs1", "note": "(stereo unspecified)", "values": [{"measurement": "AC50", "setting": "[1]", "result": "1.12 µM [rising, partial curve, poor fit]"}]}, {"smiles": "CCc1ccc2nc(NC(=O)c3ccc(N4C(=O)CCC4=O)cc3)sc2c1", "values": [{"measurement": "AC50", "setting": "[1]", "result": "8.91 µM [falling, partial curve]"}]}, {"smiles": "CCN(CC)CC#CCC(O)(c1ccccc1)c1ccc(Br)cc1", "note": "(stereo unspecified)", "values": [{"measurement": "AC50", "setting": "[1]", "result": "35.5 µM [falling, single point]"}]}, {"smiles": "FC(F)Sc1ccc(NC2=NCCCCC2)cc1", "values": [{"measurement": "AC50", "setting": "[1]", "result": "11.2 µM [falling, partial curve]"}]}, {"smiles": "O=C(CN1CCCCCC1)Nc1ccc(Br)cc1", "values": [{"measurement": "AC50", "setting": "[1]", "result": "29.1 µM [falling, single point]"}]}, {"smiles": "Cc1ccc(C)n1-c1ccc(C(=O)NN)cc1", "values": [{"measurement": "AC50", "setting": "[1]", "result": "3.26 µM [falling, full curve, poor fit]"}]}, {"smiles": "N#Cc1ccccc1OCC(=O)Nc1ccc2c(c1)OCCCO2", "values": [{"measurement": "AC50", "setting": "[1]", "result": "15.8 µM [falling, single point]"}]}, {"smiles": "N#CCCN(C(=O)Nc1ccc(Cl)cc1)c1ccccc1", "values": [{"measurement": "AC50", "setting": "[1]", "result": "5.8 µM [rising, full curve]"}]}, {"smiles": "Cc1sc2nc(SCC(=O)Nc3ccc(S(N)(=O)=O)cc3)[nH]c(=O)c2c1C", "values": [{"measurement": "AC50", "setting": "[1]", "result": "0.501 µM [falling, partial curve, poor fit]"}]}, {"smiles": "COc1ccc(-c2nc(N)nc(C(F)(F)F)c2-c2cscn2)c(O)c1", "values": [{"measurement": "AC50", "setting": "[1]", "result": "3.55 µM [falling, partial curve, poor fit]"}]}, {"smiles": "N#Cc1nn(-c2ccccc2)nc1N1CCCCC1", "values": [{"measurement": "AC50", "setting": "[1]", "result": "29.1 µM [rising, single point]"}]}, {"smiles": "Nc1nc(Sc2c([N+](=O)[O-])cc(C(F)(F)F)cc2[N+](=O)[O-])n[nH]1", "values": [{"measurement": "AC50", "setting": "[1]", "result": "35.5 µM [falling, single point]"}]}, {"smiles": "Cc1cccc(-c2ccc3ncnc(NCc4cccnc4)c3c2)c1", "values": [{"measurement": "AC50", "setting": "[1]", "result": "1.64 µM [rising, partial curve, poor fit]"}]}, {"smiles": "COC(=O)CSC1=NS(=O)(=O)c2ccccc21", "values": [{"measurement": "AC50", "setting": "[1]", "result": "3.66 µM [rising, full curve, poor fit]"}]}, {"smiles": "O=C(COC(=O)c1ccc([N+](=O)[O-])cc1Cl)NCc1ccco1", "values": [{"measurement": "AC50", "setting": "[1]", "result": "9.2 µM [rising, partial curve, poor fit]"}]}, {"smiles": "O=C(CCC1COc2ccccc2O1)Nc1ncccc1O", "note": "(stereo unspecified)", "values": [{"measurement": "AC50", "setting": "[1]", "result": "13 µM [falling, partial curve, poor fit]"}]}, {"smiles": "COCC(C)NS(=O)(=O)c1ccc(NC(=O)c2ccccn2)cc1", "note": "(stereo unspecified)", "values": [{"measurement": "AC50", "setting": "[1]", "result": "6.31 µM [rising, partial curve, poor fit]"}]}, {"smiles": "CCOC(=O)C(C)On1c(-c2cccc(Cl)c2)nc2ccc([N+](=O)[O-])cc21", "note": "(stereo unspecified)", "values": [{"measurement": "AC50", "setting": "[1]", "result": "10.3 µM [falling, partial curve, poor fit]"}]}, {"smiles": "Cc1ccc(C)c2[nH]c(=O)c(CCNC(=O)c3cc4ccccc4o3)cc12", "values": [{"measurement": "AC50", "setting": "[1]", "result": "16.4 µM [rising, single point]"}]}, {"smiles": "Cc1ccc(/C=N/NC(=O)CSc2nnc(-c3ccc(Cl)cc3)n2-c2ccccc2)o1", "values": [{"measurement": "AC50", "setting": "[1]", "result": "14.6 µM [falling, partial curve, poor fit]"}]}, {"smiles": "COc1ccc(/C(N)=N/OC(=O)COc2ccccc2Cl)cc1", "values": [{"measurement": "AC50", "setting": "[1]", "result": "5.17 µM [rising, full curve, poor fit]"}]}, {"smiles": "O=c1[nH]c(CN2CCN(S(=O)(=O)/C=C/c3ccccc3)CC2)nc2cc(Cl)ccc12", "values": [{"measurement": "AC50", "setting": "[1]", "result": "12.6 µM [falling, partial curve, poor fit]"}]}, {"smiles": "Cc1cccc(N(C(=O)Nc2ccc(Cl)cc2)C2=NCC(C)S2)n1", "note": "(stereo unspecified)", "values": [{"measurement": "AC50", "setting": "[1]", "result": "7.94 µM [rising, partial curve, poor fit]"}]}, {"smiles": "CC(=O)c1cccc(NC(=O)N2CCCC2C(=O)NCc2ccc(F)cc2)c1", "note": "(stereo unspecified)", "values": [{"measurement": "AC50", "setting": "[1]", "result": "35.5 µM [rising, single point]"}]}, {"smiles": "CCCOc1ccc(C(F)(F)F)cc1NS(=O)(=O)c1ccc(Cl)nc1", "values": [{"measurement": "AC50", "setting": "[1]", "result": "23.1 µM [falling, partial curve, poor fit]"}]}, {"smiles": "Cn1c(/C(C#N)=C/c2ccc(-c3ccc(S(N)(=O)=O)cc3)o2)nc2ccccc21", "values": [{"measurement": "AC50", "setting": "[1]", "result": "10.3 µM [falling, partial curve]"}, {"measurement": "AC50", "setting": "[2]", "result": "16.4 µM [rising, partial curve, poor fit]"}]}, {"smiles": "COc1cc(/C=N/NC(=O)c2cc(-c3ccccc3OC(C)C)nc3ccccc23)ccc1O", "values": [{"measurement": "AC50", "setting": "[1]", "result": "29.1 µM [falling, single point]"}]}, {"smiles": "CCCCCc1nc2sc3c(c2c(=O)n1NC(=O)c1ccc([N+](=O)[O-])cc1)CC(C)(C)OC3", "values": [{"measurement": "AC50", "setting": "[1]", "result": "14.6 µM [falling, partial curve]"}, {"measurement": "AC50", "setting": "[2]", "result": "29.1 µM [rising, partial curve, poor fit]"}]}, {"smiles": "Cc1ccc(N/C=C/C(=O)C(C)(C)C)c(O)c1", "values": [{"measurement": "AC50", "setting": "[1]", "result": "18.4 µM [falling, single point]"}]}]}
